Screen size: about 52,000 sequences; about 210 (0.4%) were called active.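 How the source made its calls: active means gene whose silencing raises cell survival under the drug, median off-target-corrected z-score across its silencing RNAs 2 or more; inactive means the rest.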 The list shows a part of the results.
Experiment: Resistance to Poly (ADP-Ribose) Polymerase inhibitor: Gene Identification via Genome-wide siRNA Screen
Details: mouse BRCA2 R2336H ES cells, olaparib, CellTiter-Glo viability; active compounds read high
In short: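 Mouse BRCA2 R2336H ES cells were reverse-transfected with siRNA (20 nM final), treated at 48 h with 500 nM olaparib, and read by CellTiter-Glo after 72 h. Scores: MAD-based z per siRNA, median per gene, seed off-target correction.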

Sequence | z-score
GGAAACCAGGUCUCAGAGUTT against Pde4a | inactive: 1.88
GGCCCUCCCAAAUCAUUUGTT against Slc30a6 | inactive: 0.405
CCAUAAGUAGGAUUCUAUCTT against Mrg1 | inactive: -0.585
CGCUUUACCUUCCCGUUUATT against A630026F04 | inactive: -1.33
GCAGGAUAUGUAAAGGUUUTT against Ian4 | inactive: -0.928
GGACCUAUUUCUCUGCUCCTT against E330026B02Rik | inactive: -0.251
GCCAGUCUAUGCAAACCCUTT against Foxo3 | inactive: -0.121
GGUUUUUCAGAAAUUAGUGTT against Olfr1163 | inactive: -1.14
GCGAAGGAAUUUAAGGACCTT against Tmod1 | inactive: 0.198
GCUAGUCCUCAAGCUUCUGTT against Snapc2 | inactive: -0.928
CUUUUGUAAAGCCUUCCACTT against BC038328 | inactive: 0.675
GCACUGUACAGCCGUUUAUTT against 4933401I19Rik | inactive: -1.1
GCAGAAGUACGAUGGAAUCTT against Rpl11 | inactive: -2.03
CCGCCUAAAUGACUUGACATT against Fbxo12 | inactive: -0.664
GCUGUCAGUCAAUACAAAATT against 4930535E21Rik | inactive: -0.186
GGUCAAAGAUGCAUUGAAGTT against Glmn | inactive: -1.37
GGCUGAUUCUCAUCACAUUTT against E130309D02Rik | inactive: -0.452
GCAUGAAUAGCAAGCGAAGTT against AW545966 | inactive: 0.914
GCUUUUCCGACAGGACCUGTT against 4932417H02Rik | inactive: -1.62
GGAUUUUGCACAAACAGAATT against Col11a1 | inactive: -0.456
GGUGUUCAACUCCACUAUGTT against Nhlrc1 | inactive: -0.873
GCUCGAUGUGAACUGCUAGTT against Ankrd9 | inactive: -1.84

Sequence | z-score
GGGUCUUGUUAAUCUGUAUTT against Pparbp | inactive: 0.119
GGGUUUUGAGAUGUAAUGATT against Mir | inactive: -0.423
CCUUGUACAACACUGGCCGTT against Car11 | inactive: -0.144
CGGUGAACUAUGGUCCUGATT against 9130012D09Rik | inactive: 0.368
GGAGCCUAUCGCUUUACUCTT against Vps16 | inactive: -1.01
GGCAGUAUGCUCCCAGAAUTT against Fndc4 | inactive: -2.54
CGUAUUCCAUGAAUUCUGUTT against Rnf121 | inactive: 0.718
GCUCUAAGGACCAUAUACCTT against Ppm1d | inactive: 0.522
GGCGGUAAAUCAAGUGGAATT against 1810013B01Rik | inactive: 0.686
GCAUAGAAUACAAAGAUGATT against 9630058J23Rik | inactive: 0.179
GGGAAUUCUGAAAUCAUUCTT against B930062P21Rik | inactive: 0.249
GGUUUUAUCAGAAUGUCAGTT against Atpaf2 | inactive: -0.67
CCCUGUCAUGUCAGUGUGATT against Cml1 | inactive: -1.96
GGAAACAACUUUCUAUAACTT against V1ri6 | inactive: -0.157
GGCAUCACAGAAGGUUUAUTT against Rock2 | inactive: -0.819
GGACUUUCGUGAUUGUAGATT against Prkdc | inactive: -0.105
CCUUUUACUAGACACAGUCTT against 9030603L14Rik | inactive: -0.455
CGAGCUAUACGGAAAAAAATT against BC060267 | inactive: 0.103
GGCAAGUUAAGGUAUAUGGTT against Eftud1 | inactive: -1.13
GGAGCUUCUCAUGACCUUUTT against 4832428D23Rik | inactive: -0.505
GGGAACUGAAUUUUUCAGUTT against Ank3 | inactive: 0.432
GCGAUUUGUGGUUCUCAUATT against Rnf103 | inactive: 0.512

Sequence | z-score
GGCUGAAGGAGCAAUCAAATT against L3mbtl3 | inactive: 1.46
CCUAAAAGCAGGCCAAAAUTT against Dhx29 | inactive: -0.35
GGAGCUAGAUAGGAAAAAATT against Vill | inactive: -0.564
GGAUAAACAUCAUCUAUGGTT against Olfr604 | inactive: -0.153
GGCUAUAGGGAUGAUCAUATT against Cysltr1 | inactive: -1.09
GCAGCUAAGCACUGGAAAATT against Coq4 | inactive: -0.986
GCUGACUUUUAGUCAAGGATT against D630005B22Rik | inactive: 1.01
GGAAGUCCUGGACAUUCAGTT against Nfkbie | inactive: -2.49
GGGUCAAUUAUUUAUGGUUTT against D830046C22Rik | inactive: 0.328
GGUGUCUGCCUUACCAUAUTT against Dyrk1a | inactive: 0.416
GCAAGAUCCAGAACACUCATT against Adora1 | inactive: -0.691
CCAGAUGCAGUCACAAGUCTT against Klf4 | inactive: 0.422
GGAAUAGUAACUCUUUCUCTT against LOC114601 | inactive: 0.204
GGACAUUUUUGACCACAUATT against Nat1 | inactive: -1.44
GGCAGCACAAGAAAAAGAATT against Arid5a | inactive: -1.59
GGAUAAAUGGUUCUAGAAATT against 3110006P09Rik | active: -0.433
GAAAGAGAGUAAAGAGCCGTT against Ly6i | inactive: 0.732
GGUAAAGUGACCGAACACUTT against 9630033F20Rik | inactive: -1.9
GGACAGAGCUACACAAACUTT against V1rg9 | inactive: -0.158
GGUGUACCAAGUGUUUUCATT against 2210404D11Rik | inactive: -0.88
GGAGACAGCUAAGAAACUGTT against Hsd11b2 | inactive: -0.559
GGAGAAGAGAAAAAAGGAUTT against Pla1a | inactive: -0.388

Reprinted from the listing (4 entries):
Sequence | z-score
CCAGAUGCAGUCACAAGUCTT against Klf4 | inactive: 0.422
GGAAUAGUAACUCUUUCUCTT against LOC114601 | inactive: 0.204
GGACAUUUUUGACCACAUATT against Nat1 | inactive: -1.44
GGCAGCACAAGAAAAAGAATT against Arid5a | inactive: -1.59

— PubChem BioAssay AID1347423 (Functional Genomics Laboratory (NCATS/FGL), 2020)
